Laboratory results as given in PubChem BioAssay AID651640 (Broad Institute, 2012).
Hit rate of the full screen: of about 350,000 compounds, about 6,000 (1.7%) were called active. The shares of active, inactive and inconclusive entries below differ from those in the screen. Rule as the data show it: active = CPE inhibition above about 20% (passing the limit was not always enough); inconclusive = no clear call, values can overlap the other calls; tested in BHK-21 cells.

test: protection of cells from dengue 2 killing – plate reader, single concentration, primary screen (AID 651640); conditions: DENV2-infected cells, cytopathic effect rescue, at 9.99 µM, hits give high values;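 also: 0% = median of neutral control wells and 100% = median of positive control wells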

For Cc1ccccc1-c1cc(C(=O)NCc2cccc(C(F)(F)F)c2)nn1CC1CC(c2cccc([N+](=O)[O-])c2)=NO1 (centres undefined), which CPE inhibition is on record?
Its CPE inhibition is active: 49%.

With C[C@@H](NC(=O)C[C@@H]1C=C[C@H](NC(=O)Nc2ccc3c(c2)OCO3)[C@@H](CO)O1)c1ccccc1 as the compound, how does the CPE inhibition read?
The CPE inhibition was inactive: -1.66%.

With CCOC(=O)[C@H]1[C@H]2COc3ccc(Br)cc3[C@H]2N2C(=O)CNC(=O)[C@@]12C as the compound, how does the CPE inhibition read?
The CPE inhibition was active: 62.3%.

For O=C(CN1c2ccccc2Sc2ccccc21)NNC(=O)Nc1cccc(Cl)c1, which CPE inhibition is on record?
The CPE inhibition was inconclusive: 54.5%.

Which CPE inhibition does the source give for C[C@@H]1CN([C@H](C)CO)C(=O)c2cc(C#CCN(C)C)cnc2O[C@@H]1CN(C)Cc1ccncc1 here?
The CPE inhibition was inconclusive: 26.2%.

For CCCCC(c1nnnn1CS(=O)(=O)c1ccc(C)cc1)N1CCC(C(N)=O)CC1 (centres undefined), which CPE inhibition is on record?
The CPE inhibition was inconclusive: 40.8%.

Which CPE inhibition does the source give for COc1ccc(C(=O)Nc2ccc(N3CCN(C(C)=O)CC3)cc2)cc1[N+](=O)[O-] here?
The CPE inhibition was inconclusive: 37.3%.

Which CPE inhibition does the source give for C[C@@H]1CN([C@H](C)CO)C(=O)c2cc(-c3ccncc3)cnc2O[C@H]1CN(C)C(=O)C1CCCCC1 here?
The CPE inhibition was inconclusive: 23%.

For O=C(N/N=C/c1c[nH]c2ccccc12)c1ccc2c(c1)OCCO2, which CPE inhibition is on record?
Its CPE inhibition is inactive: -4.23%.

For CO[C@H]1CN(C)C(=O)c2cc(NS(C)(=O)=O)ccc2OC[C@H](C)N(Cc2nccs2)C[C@@H]1C, which CPE inhibition is on record?
Its CPE inhibition is inactive: 1%.

With COc1ccc(/C=N/NC(=O)c2ccc(NC(=O)C3CCCCC3)cc2)cc1O as the compound, how does the CPE inhibition read?
Its CPE inhibition is inconclusive: 20.4%.

Which CPE inhibition does the source give for C=CCc1cccc2cc(C(=O)Nc3ccc(F)cc3)c(=O)oc12 here?
Its CPE inhibition is inconclusive: 45.9%.

For O=C1OC(CC(=O)N(Cc2nnc(-c3ccccc3Cl)o2)C2CC2)c2ccccc21 (centres undefined), which CPE inhibition is on record?
The CPE inhibition was inconclusive: 36%.

For Cc1csc(=O)n1CCC(=O)OC(C)C(=O)NCc1ccccc1 (centres undefined), which CPE inhibition is on record?
Its CPE inhibition is inconclusive: 42.2%.

Which CPE inhibition does the source give for CCC(=O)N1C[C@H](C)[C@H](OC)CN(C)C(=O)c2ccc(NC(=O)NC(C)C)cc2OC[C@H]1C here?
Its CPE inhibition is active: 69.8%.

For O=C(O)Cn1c(=O)c2c(c3ccccc31)CCC2, which CPE inhibition is on record?
Its CPE inhibition is inconclusive: 22.8%.

Which CPE inhibition does the source give for C[C@H]1CN([C@@H](C)CO)S(=O)(=O)c2ccc(-c3ccc(F)cc3)cc2O[C@@H]1CN(C)C(=O)C1CCCCC1 here?
Its CPE inhibition is active: 52.2%.

For COc1cc(C(=O)N2CC(C)OC(C)C2)c([N+](=O)[O-])cc1OC (centres undefined), which CPE inhibition is on record?
Its CPE inhibition is inconclusive: 27.4%.

With O=C([C@@H]1CC=C[C@@H]2CCN(C3CCCCC3)C(=O)[C@@H]21)N1CCN(c2ccccc2)CC1 as the compound, how does the CPE inhibition read?
Its CPE inhibition is inconclusive: 40.3%.

For COCCNC(=O)C[C@@H]1C[C@H]2c3cc(NC(=O)Nc4ccc(OC)cc4)ccc3O[C@H]2[C@@H](CO)O1, which CPE inhibition is on record?
Its CPE inhibition is active: 114%.

For CC(C)C#Cc1ccc2c(c1)O[C@@H](CN(C)C(=O)CN(C)C)[C@@H](C)CN([C@@H](C)CO)S2(=O)=O, which CPE inhibition is on record?
The CPE inhibition was active: 30.7%.

For CCCNC(=O)[C@@H]1[C@@H](CO)[C@@H]2Cn3c(cccc3=O)[C@@H]2N1C(=O)C1CCC1, which CPE inhibition is on record?
Its CPE inhibition is inactive: -4.4%.

For C[C@@H]1CCCCO[C@@H](CN(C)C(=O)CCCN(C)C)[C@@H](C)CN([C@H](C)CO)C(=O)c2cc(NC(=O)Cc3ccccc3)ccc2O1, which CPE inhibition is on record?
The CPE inhibition was active: 142%.

Which CPE inhibition does the source give for CC1=C(C(=O)OCc2ccccc2)C(c2cccc(F)c2)NC(=O)N1 (centres undefined) here?
Its CPE inhibition is inconclusive: 32.7%.

Which CPE inhibition does the source give for Cc1ccc(S(=O)(=O)CCC(=O)OCC(=O)NCc2ccccc2)cc1 here?
Its CPE inhibition is inconclusive: 41.2%.

For CCOc1ccccc1N(C(=O)Nc1cccc(Cl)c1)C1=NC(C)CS1 (centres undefined), which CPE inhibition is on record?
The CPE inhibition was inactive: -0.482%.

With Nc1nc2c(ncn2[C@@H]2O[C@H](CNCC3=Cc4cc(O)ccc4OC3)[C@@H](O)[C@H]2O)c(=O)[nH]1 as the compound, how does the CPE inhibition read?
Its CPE inhibition is inconclusive: 80.3%.

Which CPE inhibition does the source give for Cc1cc(C)c(OCC(=O)NCC(C)(C)N2CCOCC2)c(C)c1 here?
The CPE inhibition was inconclusive: 26.5%.

Which CPE inhibition does the source give for Cc1cc(C(=O)Nc2cc(C)on2)on1 here?
The CPE inhibition was inconclusive: 25.6%.

Which CPE inhibition does the source give for CC1OC(CCc2cccc(Cl)c2)Cc2[nH]c(=S)[nH]c(=O)c21 (centres undefined) here?
Its CPE inhibition is active: 39.8%.

For CN(C)Cc1nc2c([nH]1)c(=O)n(C)c(=O)n2C, which CPE inhibition is on record?
The CPE inhibition was inconclusive: 29.3%.

For Fc1ccc(CSc2ccc(-c3cccs3)nn2)cc1, which CPE inhibition is on record?
Its CPE inhibition is inconclusive: 27.2%.

Which CPE inhibition does the source give for Cc1ccc(C(=O)N/C(=C/c2ccco2)C(=O)N2CCC(C)CC2)cc1 here?
Its CPE inhibition is inconclusive: 30.1%.

For Cc1ccc(S(=O)(=O)N(C)C[C@@H]2Oc3c(NC(=O)Nc4c(C)noc4C)cccc3C(=O)N([C@H](C)CO)C[C@@H]2C)cc1, which CPE inhibition is on record?
Its CPE inhibition is inconclusive: 21.5%.

Which CPE inhibition does the source give for Cc1ccc(CNC(=O)C(=O)NCC2OCCN2S(=O)(=O)c2ccc(Cl)cc2)cc1 (centres undefined) here?
The CPE inhibition was inconclusive: 26.9%.

For Cc1cc(C)c(S(=O)(=O)c2cccc(Cl)c2)c(=O)[nH]1, which CPE inhibition is on record?
The CPE inhibition was inconclusive: 31%.

Which CPE inhibition does the source give for Cc1cc(-c2ccc(Cl)cc2)n2nc(C)cc2n1 here?
The CPE inhibition was inconclusive: 41.8%.

For CC(C)NC(=O)N1[C@H](CO)[C@@H](c2ccccc2)[C@H]1CN(C)C(=O)c1ccncc1, which CPE inhibition is on record?
Its CPE inhibition is inactive: -2.89%.

For N#C[C@@H]1[C@H](c2ccccc2-c2ccccc2F)[C@H](CO)N1C(=O)Cc1ccccc1, which CPE inhibition is on record?
Its CPE inhibition is inactive: -9.28%.

For C[C@H](NC(=O)C[C@H]1C=C[C@@H](NC(=O)c2cccnc2)[C@@H](CO)O1)c1ccccc1, which CPE inhibition is on record?
Its CPE inhibition is inconclusive: 21.1%.

For CC(=O)Nc1ccc(NC(=O)C(c2ccccc2)c2ccccc2)cc1, which CPE inhibition is on record?
Its CPE inhibition is inactive: 4.93%.

With Cn1c(CNC(=O)c2ccccc2F)nnc1SCC(=O)Nc1nnc(C2CC2)s1 as the compound, how does the CPE inhibition read?
The CPE inhibition was inactive: 6.84%.

With C[C@@H]1CCCCO[C@@H](CN(C)Cc2ccc(C(F)(F)F)cc2)[C@@H](C)CN([C@H](C)CO)C(=O)c2cc(NC(=O)c3ccccc3)ccc2O1 as the compound, how does the CPE inhibition read?
The CPE inhibition was active: 25.1%.

With Cc1nc2c(-c3ccccc3)c(C)[nH]n2c(=O)c1Cc1ccccc1 as the compound, how does the CPE inhibition read?
The CPE inhibition was inactive: -1.12%.

Which CPE inhibition does the source give for O=C(NNC(=O)c1ccc([N+](=O)[O-])cc1)NC1CCCCC1 here?
Its CPE inhibition is inconclusive: 24.9%.

For CCOC(=O)c1c(SCc2ccccc2)n[nH]c1N, which CPE inhibition is on record?
The CPE inhibition was inconclusive: 28.6%.

With Nc1ncnc(N2CCOCC2)n1 as the compound, how does the CPE inhibition read?
Its CPE inhibition is inconclusive: 22.1%.

Which CPE inhibition does the source give for CN1C(=O)c2cc(NS(C)(=O)=O)ccc2OC[C@H]2O[C@H](CC(=O)N3CCOCC3)CC[C@H]21 here?
The CPE inhibition was inconclusive: 20.5%.

Which CPE inhibition does the source give for CO[C@H]1CN(C)C(=O)c2cc(NC(=O)Nc3ccccc3F)ccc2OC[C@H](C)N(C(C)=O)C[C@H]1C here?
The CPE inhibition was active: 21.4%.
